Measured values reported in PubChem BioAssay AID2685 (National Center for Advancing Translational Sciences (NCATS), 2010).
The list shows a part of the results. The main result of the screen is listed elsewhere. These columns were measured beside it and carry no call. Most of these compounds were active or inconclusive in the main read-out, so they are no random draw. The note in brackets gives the kind of curve behind each potency; many fits are weak.

Assay: qHTS Assay for Lipid Storage Modulators in Drosophila S3 Cells;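 as to cell number change: cells counted by Cell Tracker Red CMTPX staining in the red channel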
Details: BODIPY lipid droplet fluorescence, 18-24 h; for cell number change: measured here: cell count max response, cells fed with added oleic acid
Procedure, shortened: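 Drosophila S3 cells got compounds at several concentrations plus oleic acid (400 uM solution). Laser-scanning cytometry with 488 nm excitation read lipid droplets at 500-530 nm and cells at 575-640 nm. Percent activity was relative to 20 uM Triacsin C.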

[1] = measured here: lipid fluorescence (Fed channel) AC50, cells fed with added oleic acid
[2] = measured here: cell number channel AC50, cells fed with added oleic acid

SMILES	cell number change [%]	AC50 [1]	AC50 [2]
CCCCn1c(N)c(N(CC)C(=O)c2cccc(C)c2)c(=O)[nH]c1=O	5.88	0.00461 µM [rising, full curve, poor fit]	–
COc1ccc(/C=C2\CCCC3C2=NN(C(=O)CSc2ncn[nH]2)C3c2ccc(OC)cc2)cc1 (stereo unspecified)	–	29.1 µM [falling, single point]	–
COc1ccc(S(=O)(=O)NNC(=O)c2ccc([N+](=O)[O-])cc2)cc1	-16.4	–	–
Cc1ccc(S(=O)(=O)N2CCCCC2)cc1NC(=O)c1nn(C)c(=O)c2ccccc12	-1.49	0.206 µM [rising, full curve, poor fit]	–
COc1cc2c(cc1OC)-c1nc3ccccc3c(=O)n1C(C)(C)C2	–	1.3 µM [rising, partial curve]	1.46 µM [rising, full curve]
Cc1cc(NS(=O)(=O)Cc2ccccc2)no1	-26.4	–	–
Cc1ccc(Nc2nnc(SCC(=O)NC3CC3)s2)cc1	29.9	29.1 µM [rising, single point]	–
CC1=NN(c2ccccc2)C(=O)/C1=C/c1cn(C)c2ccccc12	-62.5	6.51 µM [falling, full curve]	6.51 µM [falling, full curve]
O=C(N/N=C/c1cccc2ccccc12)c1cc2ccccc2o1	-31.5	29.1 µM [rising, single point]	29.1 µM [falling, single point]
COc1ccc(Cc2nc3ccc(C(=O)NCCCSC)cc3o2)cc1OC	-1.07	0.58 µM [falling, full curve, poor fit]	–
Cc1cc2ccccc2c(=O)n1CC(=O)NCCC1=CCCCC1	1.19	–	–
CC1=Nn2c(nnc2-c2cccs2)SC1	–	6.51 µM [falling, single point]	–
O=C1NC2(CCCCC2)C(=O)N1/N=C/c1ccc(O)cc1O	–	6.51 µM [falling, single point]	–
CCOc1ccc(C(=O)Cn2cnnc2C#N)cc1	11.8	–	–
COc1ccccc1-c1c(C)nn2c(N3CCC(C(N)=O)CC3)cc(C)nc12	–	4.61 µM [rising, single point]	–
O=C(Nc1cccc(Cl)c1)c1ccc2c(c1)SC1=NS(=O)(=O)CCN12	82.5	29.1 µM [rising, single point]	29.1 µM [rising, single point]
Cc1nc(SCC(=O)NCc2ccco2)[nH]c(=O)c1C	-0.516	0.231 µM [falling, full curve, poor fit]	–
c1ccc(CSc2nnc(SCc3ccccn3)s2)nc1	6.87	20.6 µM [falling, single point]	0.00651 µM [falling, full curve, poor fit]
O=C(COc1ccc(N2C(=O)c3ccccc3C2=O)cc1)c1ccccc1	11.3	–	6.51 µM [rising, partial curve]
COCCn1nnnc1CN1C2CCCC1CC(NC(C)=O)C2 (stereo unspecified)	-10	23.1 µM [falling, single point]	–
Cc1cc(C)c(C#N)c(SCc2cc3c(cc2Cl)OCO3)n1	-6.69	–	6.51 µM [rising, single point]

SMILES	cell number change [%]	AC50 [1]	AC50 [2]
O=C(Nc1ccccc1F)c1cc(S(=O)(=O)N2CCOCC2)cs1	19	–	0.0517 µM [rising, full curve, poor fit]
CCCc1nnc2c(N(C)S(=O)(=O)c3ccc(C)cc3)nc3ccccc3n12	–	2.31 µM [rising, partial curve]	–
COC(=O)c1cccc(NC(=O)C2COc3ccccc3O2)c1 (stereo unspecified)	4.22	0.651 µM [falling, single point]	–
CCCSc1nnc(NC(=O)Cc2ccc(OC)c(OC)c2)s1	10.1	–	–
CC(=O)c1cn(CCOc2ccccc2C)c2ccccc12	-21.1	29.1 µM [falling, single point]	–
COc1nccnc1NS(=O)(=O)c1ccc(NC(=O)c2ccccc2Br)cc1	-27.6	5.62 µM [rising, single point]	–
CC(C)c1nc(SCC(=O)NC(=O)NC(C)(C)C)n[nH]1	-13.7	–	–
Cc1cc(C)cc(NC(=S)Nc2ccccn2)c1	9.5	32.6 µM [rising, single point]	–
COc1cc(OC)cc(-n2nnnc2SCC(=O)NC2CCCC2)c1	33.9	6.51 µM [rising, single point]	6.51 µM [rising, partial curve]
CCOC(=O)c1c(C)[nH]c(N=Nc2ccc(OC)cc2)c1C	-45.8	–	23.1 µM [falling, single point]
CCOC(=O)c1c(C)[nH]c(C(=O)CN2C(=O)NC(C)(c3ccc4ccccc4c3)C2=O)c1C (stereo unspecified)	-20.8	0.731 µM [falling, full curve, poor fit]	–
Cn1cc(S(=O)(=O)N2CCCC2)cc1C(=O)NCc1ccccc1	15.3	–	–
Nc1nc(-c2nonc2N)no1	-11.5	2.06 µM [falling, full curve]	–
O=C(NC1CCN(C(=O)Nc2ccccc2Cl)CC1)c1ccco1	-6.41	0.58 µM [falling, single point]	–
CC1(C)CC(=O)C2=C(C1)Nc1ccccc1[S@]2=O	17.5	1.3 µM [rising, partial curve]	0.259 µM [rising, partial curve]
CCOC(=O)C1(Cc2ccccc2)CCN(Cc2cc(OC)c3c(c2)OCO3)CC1	-27.8	0.58 µM [falling, single point]	0.092 µM [falling, full curve, poor fit]
CCn1nc(C)c(Br)c1-c1nc(-c2ccc(C)cc2)no1	36.6	29.1 µM [rising, single point]	–
Cc1ccc2c(C(=O)CCl)c(C)[nH]c2c1	–	0.517 µM [falling, single point]	–
Nc1nn2cc(-c3ccc(Br)cc3)nc2c2ccccc12	-36.6	–	32.6 µM [falling, single point]

In another format: two of the compounds above

| SMILES | cell number change [%] | AC50 [1] | AC50 [2] |
| --- | --- | --- | --- |
| CCOC(=O)c1c(C)[nH]c(C(=O)CN2C(=O)NC(C)(c3ccc4ccccc4c3)C2=O)c1C (stereo unspecified) | -20.8 | 0.731 µM [falling, full curve, poor fit] | – |
| Cn1cc(S(=O)(=O)N2CCCC2)cc1C(=O)NCc1ccccc1 | 15.3 | – | – |
